From the supplement of paper PMC6078165

System: MDAMB468
Test: relative JC-1 red fluorescence (viability) vs pre-drug, coculture with fibroblast (fraction); higher = more viable cancer cells
Description: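 JC-1 labelled TNBC cells cocultured 1:1 (1,500 cells each) with CellTrace Violet stained primary or stromal fibroblasts in 384-well plates in FluoroBrite medium, treated with one of 42 anticancer drugs at 0.1, 1, 10 or 100 uM. JC-1 red fluorescence (mitochondrial integrity in cancer cells only) was read by plate reader every 8 h for 72 h. Values are normalised to each well's pre-drug value. The stock of one drug was tenfold lower, so its dose labels may be too high.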

CC(C)C[C@H](NC(=O)[C@@H](COC(C)(C)C)NC(=O)[C@H](Cc1ccc(O)cc1)NC(=O)[C@H](CO)NC(=O)[C@H](Cc1c[nH]c2ccccc12)NC(=O)[C@H](Cc1cnc[nH]1)NC(=O)[C@@H]1CCC(=O)N1)C(=O)N[C@@H](CCCNC(=N)N)C(=O)N1CCC[C@H]1C(=O)NNC(N)=O [Goserelin]
relative JC-1 red fluorescence
Conditions	8 h	16 h	24 h	32 h	40 h	48 h	56 h	64 h	72 h
0.1 µM, coculture fibroblast: C12385	0.8564	0.7823	0.7379	0.67	0.62	0.607	0.566	0.536	0.522
0.1 µM, coculture fibroblast: H6013	0.8443	0.852	0.808	0.796	0.763	0.771	0.745	0.733	0.681
0.1 µM, coculture fibroblast: H6019	0.816	0.791	0.76	0.71	0.67	0.647	0.601	0.566	0.541
0.1 µM, coculture fibroblast: H6076	0.92	0.829	0.892	0.878	0.81	0.7945	0.745	0.721	0.749
0.1 µM, coculture fibroblast: H6231	0.8357	0.901	0.806	0.818	0.764	0.734	0.692	0.667	0.654
0.1 µM, coculture fibroblast: HADF	0.886	0.8276	0.789	0.779	0.727	0.719	0.673	0.666	0.632
0.1 µM, coculture fibroblast: HCFa	0.8353	0.818	0.7662	0.739	0.672	0.663	0.6138	0.581	0.5452
0.1 µM, coculture fibroblast: HCPF	0.8819	0.946	0.88	0.871	0.788	0.7539	0.692	0.6722	0.652
0.1 µM, coculture fibroblast: HHSteC	0.872	0.821	0.771	0.728	0.676	0.676	0.608	0.579	0.536
0.1 µM, coculture fibroblast: HMF	0.831	0.822	0.886	0.841	0.767	0.744	0.686	0.668	0.644
0.1 µM, coculture fibroblast: HPFa	0.9512	0.882	0.842	0.799	0.76	0.75	0.68	0.651	0.578
0.1 µM, coculture fibroblast: HUF	0.9066	0.8152	0.757	0.702	0.652	0.627	0.579	0.552	0.535
0.1 µM, coculture fibroblast: Hs5	0.848	0.949	0.888	0.85	0.76974	0.734	0.7	0.662	0.67
0.1 µM, coculture fibroblast: Hs27A	0.8672	0.815	0.756	0.753	0.686	0.674	0.627	0.605	0.566
0.1 µM, coculture fibroblast: Hs343T	0.895	0.9814	0.9054	0.875	0.801	0.756	0.693	0.67	0.637
0.1 µM, coculture fibroblast: WS1	0.822	0.7729	0.727	0.6535	0.603	0.57	0.54	0.517	0.502
1 µM, coculture fibroblast: C12385	0.858	0.817	0.759	0.684	0.648	0.643	0.601	0.576	0.565
1 µM, coculture fibroblast: H6013	0.8904	0.833	0.824	0.825	0.804	0.816	0.79	0.784	0.73
1 µM, coculture fibroblast: H6019	0.844	0.797	0.773	0.7375	0.7106	0.6995	0.65732	0.6246	0.5946
1 µM, coculture fibroblast: H6076	0.937	0.943	0.897	0.917	0.85	0.854	0.826	0.824	0.888
1 µM, coculture fibroblast: H6231	0.839	0.88383	0.826	0.794	0.732	0.714	0.669	0.644	0.629
1 µM, coculture fibroblast: HADF	0.917	0.843	0.816	0.816	0.78	0.76	0.721	0.71	0.663
1 µM, coculture fibroblast: HCFa	0.88898	0.8189	0.78	0.756	0.704	0.701	0.642	0.614	0.55
1 µM, coculture fibroblast: HCPF	0.883	0.924	0.814	0.822	0.748	0.734	0.691	0.687	0.679
1 µM, coculture fibroblast: HHSteC	0.951	0.914	0.866	0.841	0.794	0.797	0.731	0.706	0.65
1 µM, coculture fibroblast: HMF	0.856	0.933	0.881	0.853	0.792	0.775	0.716	0.702	0.68
1 µM, coculture fibroblast: HPFa	0.9505	0.9432	0.879	0.825	0.799	0.796	0.73	0.693	0.598
1 µM, coculture fibroblast: HUF	0.896	0.784	0.733	0.673	0.628	0.5959	0.553	0.527	0.498
1 µM, coculture fibroblast: Hs5	0.955	0.948	0.918	0.896	0.835	0.804	0.7757	0.746	0.771
1 µM, coculture fibroblast: Hs27A	0.8524	0.778	0.76	0.773	0.72	0.708	0.667	0.64	0.588
1 µM, coculture fibroblast: Hs343T	0.8765	0.948	0.885	0.89	0.815	0.804	0.754	0.743	0.725
1 µM, coculture fibroblast: WS1	0.8702	0.794	0.733	0.686	0.659	0.633	0.602	0.577	0.574
10 µM, coculture fibroblast: C12385	0.8936	0.813	0.764	0.7	0.65	0.623	0.579	0.54	0.515
10 µM, coculture fibroblast: H6013	0.894	0.852	0.825	0.81	0.781	0.799	0.78	0.767	0.726
10 µM, coculture fibroblast: H6019	0.7985	0.787	0.762	0.719	0.673	0.658	0.612	0.572	0.544
10 µM, coculture fibroblast: H6076	0.9196	0.963	0.894	0.89287	0.824	0.8244	0.7819	0.77	0.804
10 µM, coculture fibroblast: H6231	0.8589	0.935	0.81903	0.8239	0.764	0.744	0.687	0.664	0.662
10 µM, coculture fibroblast: HADF	0.9027	0.844	0.799	0.788	0.736	0.721	0.676	0.655	0.611
10 µM, coculture fibroblast: HCFa	0.8531	0.837	0.786	0.748	0.687	0.679	0.62	0.582	0.548
10 µM, coculture fibroblast: HCPF	0.9	0.893	0.8713	0.8825	0.81	0.7839	0.733	0.719	0.702
10 µM, coculture fibroblast: HHSteC	0.879	0.861	0.818	0.7819	0.744	0.74	0.67	0.646	0.596
10 µM, coculture fibroblast: HMF	0.845	0.9357	0.8744	0.8642	0.7882	0.7722	0.7199	0.7082	0.6859
10 µM, coculture fibroblast: HPFa	0.9413	0.899	0.869	0.816	0.789	0.794	0.721	0.693	0.61
10 µM, coculture fibroblast: HUF	0.917	0.821	0.781	0.716	0.661	0.636	0.593	0.569	0.553
10 µM, coculture fibroblast: Hs5	0.853	0.9426	0.895	0.8627	0.79	0.761	0.729	0.692	0.707
10 µM, coculture fibroblast: Hs27A	0.84	0.812	0.766	0.769	0.711	0.704	0.653	0.619	0.576
10 µM, coculture fibroblast: Hs343T	0.89722	0.954	0.899	0.876	0.806	0.779	0.725	0.699	0.669
10 µM, coculture fibroblast: WS1	0.8544	0.7793	0.729	0.66665	0.615	0.582	0.544	0.504	0.487
100 µM, coculture fibroblast: C12385	0.8916	0.849	0.823	0.761	0.7195	0.697	0.65428	0.622	0.606
100 µM, coculture fibroblast: H6013	0.8991	0.856	0.808	0.787	0.765	0.762	0.733	0.725	0.667
100 µM, coculture fibroblast: H6019	0.842	0.8287	0.817	0.766	0.716	0.69	0.636	0.601	0.577
100 µM, coculture fibroblast: H6076	0.946	0.961	0.94	0.969	0.91	0.9192	0.895	0.889	0.929
100 µM, coculture fibroblast: H6231	0.8504	0.907	0.849	0.852	0.784	0.77	0.728	0.696	0.684
100 µM, coculture fibroblast: HADF	0.924	0.852	0.834	0.824	0.78	0.779	0.732	0.72	0.674
100 µM, coculture fibroblast: HCFa	0.889	0.8527	0.8032	0.7837	0.7234	0.722	0.6654	0.636	0.585
100 µM, coculture fibroblast: HCPF	0.931	0.982	0.951	0.946	0.861	0.84	0.793	0.784	0.779
100 µM, coculture fibroblast: HHSteC	0.911	0.884	0.8529	0.8295	0.788	0.784	0.724	0.697	0.65
100 µM, coculture fibroblast: HMF	0.857	0.952	0.895	0.876	0.799	0.7845	0.7294	0.7082	0.6957
100 µM, coculture fibroblast: HPFa	0.955	0.929	0.917	0.866	0.832	0.83	0.755	0.721	0.639
100 µM, coculture fibroblast: HUF	0.911	0.859	0.8132	0.745	0.703	0.678	0.637	0.61	0.587
100 µM, coculture fibroblast: Hs5	0.798	0.9333	0.9041	0.884	0.808	0.781	0.742	0.712	0.733
100 µM, coculture fibroblast: Hs27A	0.878	0.814	0.797	0.801	0.743	0.736	0.696	0.661	0.612
100 µM, coculture fibroblast: Hs343T	0.921	0.966	0.944	0.942	0.86	0.841	0.78	0.762	0.744
100 µM, coculture fibroblast: WS1	0.912	0.826	0.7912	0.723	0.685	0.654	0.615	0.573	0.553

Values are relative to the signal before dosing, not to a vehicle control; the signal also falls without drug.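 Labels refer to human fibroblasts, largely primary: uterine (C12385, HUF), lung (H6013), bone (Hs27A), adrenal (HADF), skin (WS1), plus mammary HMF and breast cancer-associated Hs343T. Cancer lines are basal-like or mesenchymal-like triple-negative breast cancer. The paper counts as hits responses shifting over 3x the replicate standard deviation. The tissue of the other fibroblasts is not given here.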
